Experimental data reported in publication PMC11925928.

The chains behind the UniProt entries cited, without tags or fusion partners. Residues count along the entry.
UniProt P02545, residues 1-646: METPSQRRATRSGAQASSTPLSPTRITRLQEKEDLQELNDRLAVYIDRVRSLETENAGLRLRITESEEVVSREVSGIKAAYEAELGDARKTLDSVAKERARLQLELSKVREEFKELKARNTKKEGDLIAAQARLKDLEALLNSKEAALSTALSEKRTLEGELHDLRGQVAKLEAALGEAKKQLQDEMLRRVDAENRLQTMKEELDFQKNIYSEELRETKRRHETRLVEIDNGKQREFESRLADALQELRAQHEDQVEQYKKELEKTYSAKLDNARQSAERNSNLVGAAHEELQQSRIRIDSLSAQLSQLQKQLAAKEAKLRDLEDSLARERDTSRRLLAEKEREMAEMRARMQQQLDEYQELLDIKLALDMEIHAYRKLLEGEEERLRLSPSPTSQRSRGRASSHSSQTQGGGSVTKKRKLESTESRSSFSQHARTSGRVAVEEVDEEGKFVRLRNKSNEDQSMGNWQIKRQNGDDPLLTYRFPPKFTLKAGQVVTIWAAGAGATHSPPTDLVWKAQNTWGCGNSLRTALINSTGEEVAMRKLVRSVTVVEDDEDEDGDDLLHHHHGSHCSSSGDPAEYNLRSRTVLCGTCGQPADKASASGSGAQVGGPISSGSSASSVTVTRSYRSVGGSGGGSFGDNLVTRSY
UniProt Q86YZ3: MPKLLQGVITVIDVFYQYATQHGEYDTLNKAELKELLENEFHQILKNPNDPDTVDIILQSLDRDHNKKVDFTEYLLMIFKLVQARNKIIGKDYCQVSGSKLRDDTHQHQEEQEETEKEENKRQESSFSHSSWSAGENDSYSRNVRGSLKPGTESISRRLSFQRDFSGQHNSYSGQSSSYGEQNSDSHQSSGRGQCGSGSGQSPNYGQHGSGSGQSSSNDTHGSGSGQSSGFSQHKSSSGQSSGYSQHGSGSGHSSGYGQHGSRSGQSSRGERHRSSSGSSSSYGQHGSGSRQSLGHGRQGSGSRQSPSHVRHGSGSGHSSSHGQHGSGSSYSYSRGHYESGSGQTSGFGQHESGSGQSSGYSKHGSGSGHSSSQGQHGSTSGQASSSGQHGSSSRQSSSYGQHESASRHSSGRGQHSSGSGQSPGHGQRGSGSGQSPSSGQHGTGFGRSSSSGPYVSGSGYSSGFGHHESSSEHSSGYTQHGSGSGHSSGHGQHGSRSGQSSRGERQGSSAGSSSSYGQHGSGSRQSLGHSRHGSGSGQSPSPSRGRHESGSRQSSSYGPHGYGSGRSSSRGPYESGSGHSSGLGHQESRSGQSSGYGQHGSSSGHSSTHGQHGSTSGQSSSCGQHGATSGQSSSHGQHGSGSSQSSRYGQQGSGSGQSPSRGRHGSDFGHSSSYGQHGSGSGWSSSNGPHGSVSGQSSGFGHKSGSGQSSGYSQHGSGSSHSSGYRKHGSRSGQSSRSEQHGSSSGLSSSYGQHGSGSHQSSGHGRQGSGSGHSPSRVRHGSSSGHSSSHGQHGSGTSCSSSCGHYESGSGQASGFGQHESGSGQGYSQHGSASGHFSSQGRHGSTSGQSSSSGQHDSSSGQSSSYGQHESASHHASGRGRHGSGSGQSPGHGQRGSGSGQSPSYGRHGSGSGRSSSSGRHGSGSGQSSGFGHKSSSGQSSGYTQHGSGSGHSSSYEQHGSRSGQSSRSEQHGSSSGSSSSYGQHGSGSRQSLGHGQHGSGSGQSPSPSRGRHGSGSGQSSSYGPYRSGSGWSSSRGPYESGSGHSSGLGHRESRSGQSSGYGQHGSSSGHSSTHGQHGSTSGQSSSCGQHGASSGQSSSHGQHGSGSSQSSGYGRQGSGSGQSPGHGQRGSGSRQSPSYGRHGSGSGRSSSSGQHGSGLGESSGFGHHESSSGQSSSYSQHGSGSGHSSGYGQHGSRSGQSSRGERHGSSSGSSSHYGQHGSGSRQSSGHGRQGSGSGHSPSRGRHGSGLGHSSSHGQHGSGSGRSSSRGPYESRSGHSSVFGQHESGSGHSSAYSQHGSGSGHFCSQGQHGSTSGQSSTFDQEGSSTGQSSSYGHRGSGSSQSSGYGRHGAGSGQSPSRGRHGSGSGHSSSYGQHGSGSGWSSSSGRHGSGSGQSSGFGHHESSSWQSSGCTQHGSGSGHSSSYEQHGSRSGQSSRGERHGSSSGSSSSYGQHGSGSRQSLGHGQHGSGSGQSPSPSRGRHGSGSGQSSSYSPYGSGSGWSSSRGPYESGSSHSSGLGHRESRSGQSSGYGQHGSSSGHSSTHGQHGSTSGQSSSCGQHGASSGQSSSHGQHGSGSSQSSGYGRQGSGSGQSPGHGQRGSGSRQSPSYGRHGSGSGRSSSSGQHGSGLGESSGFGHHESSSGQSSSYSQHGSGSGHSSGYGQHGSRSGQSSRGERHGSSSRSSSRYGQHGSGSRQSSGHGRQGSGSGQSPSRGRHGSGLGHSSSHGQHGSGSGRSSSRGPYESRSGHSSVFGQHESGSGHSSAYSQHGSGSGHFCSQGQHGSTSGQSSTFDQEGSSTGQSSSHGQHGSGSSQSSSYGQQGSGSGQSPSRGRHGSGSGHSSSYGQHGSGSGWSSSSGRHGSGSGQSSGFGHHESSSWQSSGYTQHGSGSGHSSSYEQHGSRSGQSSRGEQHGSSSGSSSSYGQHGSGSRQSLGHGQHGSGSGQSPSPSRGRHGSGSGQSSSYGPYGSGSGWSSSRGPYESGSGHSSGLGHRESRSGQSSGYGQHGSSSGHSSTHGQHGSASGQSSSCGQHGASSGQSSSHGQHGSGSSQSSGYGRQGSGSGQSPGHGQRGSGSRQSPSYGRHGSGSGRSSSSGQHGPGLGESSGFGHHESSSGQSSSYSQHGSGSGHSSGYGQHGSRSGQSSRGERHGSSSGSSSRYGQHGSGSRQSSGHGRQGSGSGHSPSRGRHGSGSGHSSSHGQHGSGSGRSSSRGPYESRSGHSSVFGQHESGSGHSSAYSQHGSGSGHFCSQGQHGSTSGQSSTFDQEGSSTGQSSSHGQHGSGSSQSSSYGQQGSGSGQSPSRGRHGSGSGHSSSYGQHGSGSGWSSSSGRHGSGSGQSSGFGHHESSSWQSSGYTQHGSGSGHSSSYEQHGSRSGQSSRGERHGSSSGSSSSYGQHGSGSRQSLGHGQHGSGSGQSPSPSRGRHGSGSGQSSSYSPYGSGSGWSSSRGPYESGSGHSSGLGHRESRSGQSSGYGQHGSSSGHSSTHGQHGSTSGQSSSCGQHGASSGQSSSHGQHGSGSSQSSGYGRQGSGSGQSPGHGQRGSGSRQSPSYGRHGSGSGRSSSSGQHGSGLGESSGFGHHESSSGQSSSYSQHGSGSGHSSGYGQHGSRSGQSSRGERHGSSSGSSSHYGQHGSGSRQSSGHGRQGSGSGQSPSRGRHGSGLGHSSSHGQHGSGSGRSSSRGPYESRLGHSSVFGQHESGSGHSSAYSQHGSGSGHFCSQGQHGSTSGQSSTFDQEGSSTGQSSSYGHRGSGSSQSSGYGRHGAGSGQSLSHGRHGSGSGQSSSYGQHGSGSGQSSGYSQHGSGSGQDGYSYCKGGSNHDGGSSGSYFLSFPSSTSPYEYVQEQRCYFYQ

Biological target: Cellular tumor antigen p53 (human (endogenous in HCT116)) (UniProt P04637)
Assay: affinity purification with mass spectrometry; TF-chRDP: HCT116 cells (375 uM 5-FU for 9 h to activate p53; DMSO as control) dual cross-linked with 1% formaldehyde and 2 mM EGS; nuclei sonicated; endogenous p53 chromatin complexes immunoprecipitated overnight at 4°C with anti-p53 (sc-126) on Protein G beads; low salt, high salt and TE washes; on-bead trypsin digestion; nano LC-MS/MS, MaxQuant

binding | Substance
binds | Prelamin-A/C; Lamin-A/C (from UniProt P02545 1-646)
binds | Hornerin (from UniProt Q86YZ3 1-2850)

No constants are given. Whether binding was seen depends on the method and setting. Binding seen in cells or lysates may run through a third protein. Here binding means that the protein was enriched with, or labelled near, the bait; the list need not be complete.
